This passage reports binding results from PMC12651786.

The chains behind the UniProt entries cited, without tags or fusion partners.
UniProt P26883: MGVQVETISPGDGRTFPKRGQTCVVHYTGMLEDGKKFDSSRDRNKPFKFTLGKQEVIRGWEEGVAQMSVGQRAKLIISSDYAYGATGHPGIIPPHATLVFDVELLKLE

No constants are given. Whether binding was seen depends on the method and setting. In cells and extracts the contact can be indirect. Some entries that bind do so weakly or less than the wild type.

Test [1] addresses RyR1 Cys3636Ala (C3636A) knock-in mutant (mouse) (mouse (endogenous in mouse hind-limb muscle)) (UniProt E9PZQ0). Description: co-IP; RyR1 immunoprecipitated with anti-RyR1 mouse monoclonal Ab (MA3-925) and Dynabeads-Protein G from SR vesicles (at 20 % O2) solubilized in 1 % Nonidet P40, 250 mM NaCl, 5 mM EDTA; Western blot for CaM or FKBP12; n = 4 mice per group. On the technique in general: A western blot detects proteins with antibodies after separation by electrophoresis.

Test [2] deals with ryanodine receptor/Ca2+-release channel RyR1, wild type (mouse) (mouse (endogenous in mouse hind-limb muscle)) (UniProt E9PZQ0). The test is described as above.

Take FKBP12 (from UniProt P26883 1-108): the binding entry in test [1] and in test [2] was “binds” each time.
